From doi:10.1101/2021.07.17.452750

Chains of the proteins cited; added tags and fusions are not shown.
UniProt Q96PV6: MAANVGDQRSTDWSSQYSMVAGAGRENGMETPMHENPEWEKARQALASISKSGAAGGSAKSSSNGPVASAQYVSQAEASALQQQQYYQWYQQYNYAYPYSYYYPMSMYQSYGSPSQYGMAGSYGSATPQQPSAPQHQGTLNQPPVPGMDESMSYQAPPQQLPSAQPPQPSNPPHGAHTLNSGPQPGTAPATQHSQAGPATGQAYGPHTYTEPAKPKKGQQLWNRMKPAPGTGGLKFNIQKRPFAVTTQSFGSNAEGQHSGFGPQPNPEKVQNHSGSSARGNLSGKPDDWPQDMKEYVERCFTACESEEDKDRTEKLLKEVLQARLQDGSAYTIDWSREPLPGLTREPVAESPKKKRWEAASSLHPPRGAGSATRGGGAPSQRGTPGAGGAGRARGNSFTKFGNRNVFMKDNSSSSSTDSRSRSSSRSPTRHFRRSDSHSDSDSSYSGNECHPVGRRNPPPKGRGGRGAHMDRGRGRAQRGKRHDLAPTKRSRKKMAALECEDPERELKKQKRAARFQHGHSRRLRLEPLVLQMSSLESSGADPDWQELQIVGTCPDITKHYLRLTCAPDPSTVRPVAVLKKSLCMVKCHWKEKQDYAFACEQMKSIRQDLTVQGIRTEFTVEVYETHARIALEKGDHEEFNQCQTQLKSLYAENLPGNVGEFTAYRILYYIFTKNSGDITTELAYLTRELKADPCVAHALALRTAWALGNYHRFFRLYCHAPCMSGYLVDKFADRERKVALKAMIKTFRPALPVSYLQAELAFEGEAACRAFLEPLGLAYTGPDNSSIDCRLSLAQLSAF
UniProt O75643: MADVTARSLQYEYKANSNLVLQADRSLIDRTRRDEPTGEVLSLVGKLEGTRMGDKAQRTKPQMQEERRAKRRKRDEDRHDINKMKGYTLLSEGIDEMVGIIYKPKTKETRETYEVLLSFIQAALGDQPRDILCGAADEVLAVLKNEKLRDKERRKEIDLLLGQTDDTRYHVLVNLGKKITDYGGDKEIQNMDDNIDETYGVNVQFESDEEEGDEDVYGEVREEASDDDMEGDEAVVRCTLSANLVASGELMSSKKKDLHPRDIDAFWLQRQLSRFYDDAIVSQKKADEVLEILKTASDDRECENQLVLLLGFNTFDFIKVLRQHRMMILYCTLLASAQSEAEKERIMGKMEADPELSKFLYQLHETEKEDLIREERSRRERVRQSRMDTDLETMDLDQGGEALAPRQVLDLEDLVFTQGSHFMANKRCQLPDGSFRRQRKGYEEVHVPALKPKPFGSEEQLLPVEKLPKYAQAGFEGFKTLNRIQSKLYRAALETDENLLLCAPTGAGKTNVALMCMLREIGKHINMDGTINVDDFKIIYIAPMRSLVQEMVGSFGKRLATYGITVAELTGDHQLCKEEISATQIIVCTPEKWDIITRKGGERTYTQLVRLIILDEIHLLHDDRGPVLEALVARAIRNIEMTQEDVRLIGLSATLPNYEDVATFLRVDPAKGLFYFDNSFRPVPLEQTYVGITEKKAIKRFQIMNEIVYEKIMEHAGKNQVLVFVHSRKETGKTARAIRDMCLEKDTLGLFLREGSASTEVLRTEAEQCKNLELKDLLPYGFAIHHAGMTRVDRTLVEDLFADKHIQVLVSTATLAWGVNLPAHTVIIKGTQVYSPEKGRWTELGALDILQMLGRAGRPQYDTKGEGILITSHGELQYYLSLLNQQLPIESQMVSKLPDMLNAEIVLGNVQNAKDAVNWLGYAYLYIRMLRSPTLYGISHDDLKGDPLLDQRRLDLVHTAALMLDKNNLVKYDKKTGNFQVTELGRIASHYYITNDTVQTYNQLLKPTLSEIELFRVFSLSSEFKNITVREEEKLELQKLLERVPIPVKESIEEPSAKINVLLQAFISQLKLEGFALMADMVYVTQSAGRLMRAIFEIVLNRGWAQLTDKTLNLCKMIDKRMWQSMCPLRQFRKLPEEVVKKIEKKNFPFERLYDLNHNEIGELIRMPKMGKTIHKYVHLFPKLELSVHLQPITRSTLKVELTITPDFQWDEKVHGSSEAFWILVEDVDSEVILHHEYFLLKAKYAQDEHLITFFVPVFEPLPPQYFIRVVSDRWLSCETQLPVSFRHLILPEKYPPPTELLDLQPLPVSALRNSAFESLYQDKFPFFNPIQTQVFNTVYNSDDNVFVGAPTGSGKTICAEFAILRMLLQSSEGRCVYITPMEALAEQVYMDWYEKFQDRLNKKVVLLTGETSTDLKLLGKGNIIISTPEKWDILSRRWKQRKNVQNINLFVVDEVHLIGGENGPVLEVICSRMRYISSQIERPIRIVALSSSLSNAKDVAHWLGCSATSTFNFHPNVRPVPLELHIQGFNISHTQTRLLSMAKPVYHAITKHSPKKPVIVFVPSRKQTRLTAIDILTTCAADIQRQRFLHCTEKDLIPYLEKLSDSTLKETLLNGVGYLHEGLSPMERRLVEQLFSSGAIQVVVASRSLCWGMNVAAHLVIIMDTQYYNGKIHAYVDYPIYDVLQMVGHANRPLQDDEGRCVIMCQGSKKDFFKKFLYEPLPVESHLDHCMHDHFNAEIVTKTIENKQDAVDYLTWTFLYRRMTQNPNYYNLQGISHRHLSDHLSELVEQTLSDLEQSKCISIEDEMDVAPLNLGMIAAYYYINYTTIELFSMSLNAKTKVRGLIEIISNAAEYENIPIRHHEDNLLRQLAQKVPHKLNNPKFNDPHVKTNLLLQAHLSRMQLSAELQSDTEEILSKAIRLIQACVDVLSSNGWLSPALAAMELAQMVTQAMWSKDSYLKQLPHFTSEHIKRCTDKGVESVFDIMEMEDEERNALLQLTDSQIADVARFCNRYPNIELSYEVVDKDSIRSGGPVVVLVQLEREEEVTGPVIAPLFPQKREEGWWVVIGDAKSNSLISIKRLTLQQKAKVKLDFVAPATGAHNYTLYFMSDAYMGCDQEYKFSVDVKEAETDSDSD

B1: U2AF1 (endogenous) (protein, UniProt Q01081 1-240)
chain: MAEYLASIFGTEKDKVNCSFYFKIGACRHGDRCSRLHNKPTFSQTIALLNIYRNPQNSSQSADGLRCAVSDVEMQEHYDEFFEEVFTEMEEKYGEVEEMNVCDNLGDHLVGNVYVKFRREEDAEKAVIDLNNRWFNGQPIHAELSPVTDFREACCRQYEMGECTRGGFCNFMHLKPISRELRRELYGRRRKKHRSRSRSRERRSRSRDRGRGGGGGGGGGGGGRERDRRRSRDRERSGRF
B2: NONO (endogenous) (protein, UniProt Q15233 1-471)
chain: MQSNKTFNLEKQNHTPRKHHQHHHQQQHHQQQQQQPPPPPIPANGQQASSQNEGLTIDLKNFRKPGEKTFTQRSRLFVGNLPPDITEEEMRKLFEKYGKAGEVFIHKDKGFGFIRLETRTLAEIAKVELDNMPLRGKQLRVRFACHSASLTVRNLPQYVSNELLEEAFSVFGQVERAVVIVDDRGRPSGKGIVEFSGKPAARKALDRCSEGSFLLTTFPRPVTVEPMDQLDDEEGLPEKLVIKNQQFHKEREQPPRFAQPGSFEYEYAMRWKALIEMEKQQQDQVDRNIKEAREKLEMEMEAARHEHQVMLMRQDLMRRQEELRRMEELHNQEVQKRKQLELRQEEERRRREEEMRRQQEEMMRRQQEGFKGTFPDAREQEIRMGQMAMGGAMGINNRGAMPPAPVPAGTPAPPGPATMMPDGTLGLTPPTTERFGQAATMEGIGAIGGTPPAFNRAAPGAEFAPNKRRRY
B3: THRAP3 (endogenous) (protein, UniProt Q9Y2W1 1-955)
chain: MSKTNKSKSGSRSSRSRSASRSRSRSFSKSRSRSRSLSRSRKRRLSSRSRSRSYSPAHNRERNHPRVYQNRDFRGHNRGYRRPYYFRGRNRGFYPWGQYNRGGYGNYRSNWQNYRQAYSPRRGRSRSRSPKRRSPSPRSRSHSRNSDKSSSDRSRRSSSSRSSSNHSRVESSKRKSAKEKKSSSKDSRPSQAAGDNQGDEAKEQTFSGGTSQDTKASESSKPWPDATYGTGSASRASAVSELSPRERSPALKSPLQSVVVRRRSPRPSPVPKPSPPLSSTSQMGSTLPSGAGYQSGTHQGQFDHGSGSLSPSKKSPVGKSPPSTGSTYGSSQKEESAASGGAAYTKRYLEEQKTENGKDKEQKQTNTDKEKIKEKGSFSDTGLGDGKMKSDSFAPKTDSEKPFRGSQSPKRYKLRDDFEKKMADFHKEEMDDQDKDKAKGRKESEFDDEPKFMSKVIGANKNQEEEKSGKWEGLVYAPPGKEKQRKTEELEEESFPERSKKEDRGKRSEGGHRGFVPEKNFRVTAYKAVQEKSSSPPPRKTSESRDKLGAKGDFPTGKSSFSITREAQVNVRMDSFDEDLARPSGLLAQERKLCRDLVHSNKKEQEFRSIFQHIQSAQSQRSPSELFAQHIVTIVHHVKEHHFGSSGMTLHERFTKYLKRGTEQEAAKNKKSPEIHRRIDISPSTFRKHGLAHDEMKSPREPGYKAEGKYKDDPVDLRLDIERRKKHKERDLKRGKSRESVDSRDSSHSRERSAEKTEKTHKGSKKQKKHRRARDRSRSSSSSSQSSHSYKAEEYTEETEEREESTTGFDKSRLGTKDFVGPSERGGGRARGTFQFRARGRGWGRGNYSGNNNNNSNNDFQKRNREEEWDPEYTPKSKKYYLHDDREGEGSDKWVSRGRGRGAFPRGRGRFMFRKSSTSPKWAHDKFSGEEGEIEDDESGTENREEKDNIQPTTE
B4: THOC1 (endogenous) (protein, UniProt Q96FV9 1-657)
chain: MSPTPPLFSLPEARTRFTKSTREALNNKNIKPLLSTFSQVPGSENEKKCTLDQAFRGILEEEIINHSSCENVLAIISLAIGGVTEGICTASTPFVLLGDVLDCLPLDQCDTIFTFVEKNVATWKSNTFYSAGKNYLLRMCNDLLRRLSKSQNTVFCGRIQLFLARLFPLSEKSGLNLQSQFNLENVTVFNTNEQESTLGQKHTEDREEGMDVEEGEMGDEEAPTTCSIPIDYNLYRKFWSLQDYFRNPVQCYEKISWKTFLKYSEEVLAVFKSYKLDDTQASRKKMEELKTGGEHVYFAKFLTSEKLMDLQLSDSNFRRHILLQYLILFQYLKGQVKFKSSNYVLTDEQSLWIEDTTKSVYQLLSENPPDGERFSKMVEHILNTEENWNSWKNEGCPSFVKERTSDTKPTRIIRKRTAPEDFLGKGPTKKILMGNEELTRLWNLCPDNMEACKSETREHMPTLEEFFEEAIEQADPENMVENEYKAVNNSNYGWRALRLLARRSPHFFQPTNQQFKSLPEYLENMVIKLAKELPPPSEEIKTGEDEDEEDNDALLKENESPDVRRDKPVTGEQIEVFANKLGEQWKILAPYLEMKDSEIRQIECDSEDMKMRAKQLLVAWQDQEGVHATPENLINALNKSGLSDLAESLTNDNETNS

target: ZZ-LENG8-3xFLAG (human) (UniProt Q96PV6); experiment: affinity purification with mass spectrometry

Row | Molecule | binding
1 | SNRNP200 (endogenous) (from UniProt O75643 1-2136) | binds
2 | B1 | binds
3 | B2 | binds
4 | B3 | binds
5 | B4 | binds

Results are given in words; binding and its absence hold for the method and conditions named. Binding seen in cells or lysates may run through a third protein. These calls come from enrichment with a bait or labelling near it, and not all partners need be listed.
